# From patent US6770478B2, “Erythrocytic cells and method for preserving cells” (The Regents of the University of California, priority 2000, dated 2004)
# Tested on: human platelets
# Assay: Loading of platelets with trehalose, quantified by anthrone reaction
# Assay type: cell-based
# Settings: 37° C., incubation period of 4 hours, time course; external concentration 25 mM
# Description: Loading of Platelets with Trehalose. Washed platelets in a concentration of 1-2 10^9 platelets/ml were incubated at various temperatures in the presence of 1-20 mg/ml trehalose. Incubation temperatures were chosen from 4° C. to 37° C. Incubation times were varied from 0.5 to 4 hours. After incubation the platelet solutions were washed in buffer A two times (by centrifugation at 14,000 RPM for 20 s in a table centrifuge). Platelet counts were obtained on a coulter counter. Platelets were pelleted (45 S at 14,000 RPM) and sugars were extracted from the pellet using 80% methanol. The samples were heated for 30 minutes at 80° C. […] The amount of trehalose in the platelets was quantified using the anthrone reaction (Umbreit et al., Mamometric and Biochemical Techniques, 5th Edition, 1972). […] Then the samples were cooled on ice and the absorbance was measured at 620 nm on a Perkin Elmer spectrophotometer. The amount of platelet associated trehalose was determined using a standard curve of trehalose.
# Quantification of Trehalose and LYCH Concentration. Uptake was calculated for each sample as micrograms of trehalose or LYCH per platelet. The internal trehalose concentration was calculated assuming a platelet radius of 1.2 μm and by assuming that 50% of the platelet volume is taken up by the cytosol (rest is membranes). […]
smiles,measurement,value
OC[C@H]1O[C@H](O[C@H]2O[C@H](CO)[C@@H](O)[C@H](O)[C@H]2O)[C@H](O)[C@@H](O)[C@@H]1O [trehalose],loading efficiency,61%
